# According to PubChem BioAssay AID2685 (National Center for Advancing Translational Sciences (NCATS), 2010):
# The list shows a part of the results. Shown are side measurements of this screen, not its main read-out; they come without a call. The list favours compounds with an active or inconclusive main result. Words in brackets tell the shape of the fitted curve; partial curves, single points and poor fits give uncertain potencies.
# Assay: qHTS Assay for Lipid Storage Modulators in Drosophila S3 Cells;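 as to cell number change: cells counted by Cell Tracker Red CMTPX staining in the red channel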
# Details: BODIPY lipid droplet fluorescence, 18-24 h; for cell number change: measured here: cell count max response, cells fed with added oleic acid
# How it was run: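 Drosophila S3 cells got compounds at several concentrations plus oleic acid (400 uM solution). Laser-scanning cytometry with 488 nm excitation read lipid droplets at 500-530 nm and cells at 575-640 nm. Percent activity was relative to 20 uM Triacsin C.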
# [1] = measured here: lipid fluorescence (Fed channel) AC50, cells fed with added oleic acid
# [2] = measured here: cell number channel AC50, cells fed with added oleic acid
Compound,cell number change [%],AC50 [1],AC50 [2]
CC(C)c1ccc(NC(=O)CN2CCN(c3ccccn3)CC2)cc1,-1.06,"4.61 µM [rising, partial curve, poor fit]",–
O=C1CC(N2CCCCCC2)C(=O)N1c1ccc(F)cc1 (stereo not given),-28.9,–,–
O=C(Nc1ccc(Cl)cc1)C1CCCN(c2cnccn2)C1 (stereo not given),14.5,"29.1 µM [rising, single point]",–
COc1cc(Cl)c(C)cc1NC(=O)COC(=O)c1cnc(C)cn1,95.3,"6.51 µM [rising, single point]","16.4 µM [rising, partial curve]"
Cc1cccc(OCCSc2cc(C)nc(N)n2)c1,-44.2,"29.1 µM [falling, single point]","18.4 µM [falling, single point]"
CCN(CC)c1ccc(/C=N/N2C(C)CCCC2C)c(O)c1 (stereo not given),20.9,–,–
CCc1ccc(/C=N/NC(=O)c2cc(C)on2)s1,-7.03,–,–
Cc1ccc(C(=O)OCC(=O)Nc2ncc(C(F)(F)F)cc2Cl)cc1NC(=O)c1ccco1,131,"20.6 µM [rising, partial curve]","1.84 µM [rising, full curve]"
CN(C)S(=O)(=O)c1ccc(NC(=O)CCNC(=O)c2ccco2)cc1,8.7,"29.1 µM [falling, partial curve]",–
CCOC(=O)N1CCN(S(=O)(=O)N2CCCC(C(=O)NCCCN3CCCCC3CC)C2)CC1 (stereo not given),-19.1,–,"6.51 µM [falling, partial curve, poor fit]"
CCOc1ccc(C(=O)Nc2nnc(SCC(=O)NCC3CCCO3)s2)cc1 (stereo not given),-34.1,"0.0231 µM [falling, full curve]","32.6 µM [falling, single point]"
COc1ccc(NC(=O)CCC(=O)NCCO)cc1,-16.7,"29.1 µM [falling, single point]",–
COc1ccc(CNC(=O)CC(C)CC2=NS(=O)(=O)c3ccccc3N2)cc1 (stereo not given),8.98,"1.64 µM [rising, full curve, poor fit]",–
O=C(/C=C/c1ccc(Cl)cc1)NCCc1ccccc1,6.26,"0.58 µM [falling, partial curve]","0.366 µM [falling, partial curve, poor fit]"
Cn1c(C(=O)N2CCCC(C(=O)O)C2)cc2sccc21 (stereo not given),2.6,–,"0.0259 µM [falling, full curve, poor fit]"
CCOc1cc(/C=N\NC(=O)c2ccc(NC(=O)CC)cc2)ccc1OC(=O)c1ccccc1,-20.7,"23.1 µM [falling, single point]","0.651 µM [falling, full curve, poor fit]"
